Assay results reported in US9023889B2, “Use of ascorbic acid derivatives for the functionalization of matrices” (Merck Patent GmbH, priority 2006, dated 2015).

Test system: pig skin
Test: Evidence of bonding to pig skin
Details: for abs (~355 nm), 100% comparative value: direct measurement without application to pig skin; for abs (~355 nm) of residue: pig skin 24 h, isopropanol extract
Procedure: • 2% solution of DHAB in Arlasolve DMI sample (A) and Pelemol BIP sample (B) • formulation containing 1% of DHAB sample (C) [=54-07-5-A, from Example V] • 2% solution of DHHB in Arlasolve DMI sample (D) and isopropyl myristate sample (E) formulations containing 0.84% of DHHB sample (F) [=54-07-5-B from Example V] and 0.84% of DHHB+0.37% of vitamin C sample (G) [=54-07-5-C from Example V]. • pig skin is cut to 2.5×7.5 cm and placed on Plexiglas specimen slides. Procedure:
50 µl of each of samples (A) to (G) are dripped onto the specimen slides with pig skin, spread using a plastic spatula, and the specimen slides are stored in a desiccator [87% atmospheric humidity through sat. KCl solution] at room temperature for 24 h. The specimen slides are then rinsed with 50 ml of isopropanol into volumetric flasks, treated in an ultrasound bath for 5 min, clear-filtered via syringe filters (cloudiness due to detached skin constituents and measured by UV spectrometer (400-250 nm; UVmax˜355 nm) (residue 1 to 7). The 100% comparative value used are 50 ml isopropanol solutions of in each case 50 µl of samples (A) to (G), which are likewise measured by UV spectrometer.

| Structure (SMILES) | abs (~355 nm), 100% comparative value (1% in W/O 54-07-5-A) | abs (~355 nm) of residue (1% in W/O 54-07-5-A) | abs (~355 nm), 100% comparative value (2% in Arlasolve DMI) | abs (~355 nm) of residue (2% in Arlasolve DMI) | abs (~355 nm), 100% comparative value (2% in Pelemol BIP) | abs (~355 nm) of residue (2% in Pelemol BIP) | abs (~355 nm), 100% comparative value (0.84% in W/O 54-07-5-B) | abs (~355 nm) of residue (0.84% in W/O 54-07-5-B) | abs (~355 nm), 100% comparative value (2% in isopropyl myristate) | abs (~355 nm) of residue (2% in isopropyl myristate) |
| --- | --- | --- | --- | --- | --- | --- | --- | --- | --- | --- |
| CCN(CC)c1ccc(C(=O)c2ccccc2C(=O)OC[C@@H](O)[C@H]2OC(=O)C(O)=C2O)c(O)c1 [DHAB, (R)-2-((R)-3,4-dihydroxy-5-oxo-2,5-dihydrofuran-2-yl)-2-hydroxyethyl 2-(4-diethylamino-2-hydroxybenzoyl)benzoate] | 0.459 | 0.042 | 1.501 | 0.047 | 1.375 | 0.152 |  |  |  |  |
| CCCCCCOC(=O)c1ccccc1C(=O)c1ccc(N(CC)CC)cc1O [DHHB, hexyl 2-(4-diethylamino-2-hydroxybenzoyl)benzoate] |  |  | 2.023 | 2.013 |  |  | 0.730 | 0.691 | 1.504 | 1.477 |
